The record followed here is publication PMC9124818 (Pharmacology Research & Perspectives, 2022).

Protein sequences, listed by entry. Tags and fused reporters are not part of them.
UniProt P08684, whole entry, looked up: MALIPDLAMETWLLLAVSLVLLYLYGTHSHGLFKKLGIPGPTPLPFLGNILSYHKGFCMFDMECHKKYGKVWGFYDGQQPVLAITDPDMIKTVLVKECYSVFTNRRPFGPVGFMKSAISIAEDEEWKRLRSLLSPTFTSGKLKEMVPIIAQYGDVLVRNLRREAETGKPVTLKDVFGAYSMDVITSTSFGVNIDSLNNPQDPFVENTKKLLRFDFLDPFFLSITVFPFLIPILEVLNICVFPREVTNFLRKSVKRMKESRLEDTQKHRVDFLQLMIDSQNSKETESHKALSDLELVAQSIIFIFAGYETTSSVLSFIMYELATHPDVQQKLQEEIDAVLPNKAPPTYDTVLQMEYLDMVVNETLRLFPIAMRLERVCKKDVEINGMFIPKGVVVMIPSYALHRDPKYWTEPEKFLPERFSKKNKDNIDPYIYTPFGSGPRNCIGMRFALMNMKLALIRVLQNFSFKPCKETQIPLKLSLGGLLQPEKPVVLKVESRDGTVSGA

A number of entries come with more than one value. Only these are listed. The source may hold further records. The records of an entry differ, and nothing given here explains why; they may come from other doses, times, organisms or constructs than stated.

This series addresses CYP3A4/5 (UniProt P08684). Nature of the series: Direct CYP450 inhibition in human liver microsomes (midazolam 1'-hydroxylation; testosterone 6β-hydroxylation). Conditions: substrate testosterone (6β hydroxylase activity), FFA up to 600 µM, nFFA up to 100 µM, tested form: HCl. In general terms: Liver microsomes are a subcellular fraction often used to study metabolism.

For the compound `CC(N)Cc1cccc(C(F)(F)F)c1.Cl` (stereo not shown) [nFFA, [1‐(3‐trifluoromethyl)phenyl]propan‐2‐amine hydrochloride], the “Inhibition (%)” value was “up to 2.8% and 2.8%”.
